# System: cancer cell lines
# Assay: Growth inhibitory effects on the panel of cancer cell lines
# Format: cell-based
# Settings: count of cancer cell lines inhibited; drug 10 μM, 72 hours
smiles,measurement,value
"CC(C)OC(=O)C(C)(C)Oc1ccc(C(=O)c2ccc(Cl)cc2)cc1 [Fenofibrate (Tricor, Trilipix), Fenofibrate]",Numbers of inhibitory effect on cancer cell line,0

# Source: US20170304388A1, “NEW INDICATION OF CARDIOVASCULAR DRUGS FOR PREPARATION OF CANCER INHIBITION PHARMACEUTICAL COMPOSITION” (LAUNX BIOMEDICAL CO., LTD., priority 2014, published 2017)
